No constants are given. Whether binding was seen depends on the method and setting. Some entries that bind do so weakly or less than the wild type.
Target: MLL_(1–160)–GST (UniProt Q03164)
Assay: AlphaScreen or HTRF; out-competition: Flag-LEDGF/p75 (0.3 nM) preincubated with MLL_(1–160)–GST (10 nM) before titration of MBP-LEDGF/p75_(325–530), MBP-HRP-2_(470–552) or MBP alone; both purified

By UniProt entry, the sequences of proteins in these tests, tags left out. Residues count along the entry.
UniProt Q03164, residues 1-160: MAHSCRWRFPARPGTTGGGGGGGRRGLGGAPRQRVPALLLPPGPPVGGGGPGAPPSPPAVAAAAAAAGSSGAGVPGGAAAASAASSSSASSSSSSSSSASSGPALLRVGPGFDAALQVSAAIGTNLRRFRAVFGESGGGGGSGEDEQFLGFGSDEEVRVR
UniProt Q7Z4V5, residues 470-552: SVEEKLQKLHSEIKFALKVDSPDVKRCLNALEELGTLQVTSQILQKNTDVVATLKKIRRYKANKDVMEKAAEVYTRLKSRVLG

- binding: binds
Substance: MBP-HRP-2_(470–552) (from UniProt Q7Z4V5 470-552) (domain or fragment)

Source: PMC7835958
